Reference: PubChem BioAssay AID1259254 (NCATS, 2017)

Screen: 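Genome-wide screen for genes that prevent DNA re-replication in cancer cells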 (primary screen)
System: human HCT116 colorectal cancer cells
Knock-down reagent: single siRNA against human genes
Timing: 3 days
Measurement: 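Imaged Hoechst DNA stain sorts each cell into a cycle phase by DNA amount; per plate, G2 fraction set to 0% for non-targeting and 100% for GMNN siRNA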
Scale: G2 robust z-score: higher = more G2 cells, more excess DNA replication
Hit rule: 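Active siRNAs have a G2 robust z of 5 or more median absolute deviations over the median, which in these data means about 38% or higher of GMNN control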
This is a random part of about 59,000 reagents tested. About 1,550 of all reagents (2.6%) count as active. 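G2 share is only a proxy for re-replication; each gene was hit by three separate siRNAs, and active genes were retested.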 Reagents against one gene are numbered here. Further read-outs or replicates are left out here. The record does not give: the amount of reagent.

no.	Target gene	siRNA no.	G2 robust z-score	outcome
1	LINC01242	1	-0.132	inactive
2	LINC01242	2	1.44	inactive
3	LINC01242	3	1.28	inactive
4	NOS3	1	-0.474	inactive
5	NOS3	2	-0.995	inactive
6	NOS3	3	-0.953	inactive
7	NF2	1	1.13	inactive
8	NF2	2	-1.1	inactive
9	NF2	3	0.942	inactive
10	LINC02914	1	0.451	inactive
11	LINC02914	2	-0.376	inactive
12	LINC02914	3	-0.317	inactive
13	LILRA3	1	-0.197	inactive
14	LILRA3	2	-0.528	inactive
15	LILRA3	3	1.69	inactive
16	RBM26	1	-0.544	inactive
17	RBM26	2	-0.151	inactive
18	RBM26	3	-0.191	inactive
19	LTBP3	1	-0.486	inactive
20	LTBP3	2	-1.28	inactive
21	LTBP3	3	-0.864	inactive
22	RAB1B	1	-0.977	inactive
23	RAB1B	2	-1.06	inactive
24	RAB1B	3	3.96	inactive
25	IRAG2	1	0.0603	inactive
26	IRAG2	2	-0.361	inactive
27	IRAG2	3	4.12	inactive
28	IRAG2	4	-0.856	inactive
29	IRAG2	5	0.23	inactive
30	IRAG2	6	-0.551	inactive
31	PHKG2	1	-0.629	inactive
32	PHKG2	2	-1.16	inactive
33	PHKG2	3	1.56	inactive
34	PLAUR	1	-0.108	inactive
35	PLAUR	2	1.17	inactive
36	PLAUR	3	1.59	inactive
37	CDIN1	1	-0.82	inactive
38	CDIN1	2	-0.089	inactive
39	CDIN1	3	-0.0741	inactive
40	MEX3D	1	-1.06	inactive
41	MEX3D	2	0.763	inactive
42	MEX3D	3	2.78	inactive
43	PDSS1	1	0.22	inactive
44	PDSS1	2	-0.405	inactive
45	PDSS1	3	-0.699	inactive
46	UNC119B	1	-0.0105	inactive
47	UNC119B	2	-0.0253	inactive
48	UNC119B	3	-0.232	inactive
49	ENTPD1	1	-0.168	inactive
50	ENTPD1	2	0.662	inactive
51	ENTPD1	3	-0.236	inactive
52	PDCD1	1	3.37	inactive
53	PDCD1	2	3.08	inactive
54	PDCD1	3	0.315	inactive
55	KRT5	1	2.41	inactive
56	KRT5	2	1.99	inactive
57	KRT5	3	0.937	inactive
58	FBXO5	1	19.4	active
59	FBXO5	2	11.4	active
60	FBXO5	3	19.7	active
61	LENG8	1	2.9	inactive
62	LENG8	2	1.26	inactive
63	LENG8	3	0.371	inactive
64	RPL22P11	1	0.929	inactive
65	RPL22P11	2	0.071	inactive
66	RPL22P11	3	-0.108	inactive
67	RYR3	1	0.987	inactive
68	RYR3	2	-0.522	inactive
69	RYR3	3	-0.721	inactive
70	IGF1R	1	-1.53	inactive
71	IGF1R	2	-0.943	inactive
72	IGF1R	3	-0.0484	inactive
73	CCDC144NL	1	0.307	inactive
74	CCDC144NL	2	-0.774	inactive
75	CCDC144NL	3	-0.992	inactive
76	ZMYND8	1	-0.316	inactive
77	ZMYND8	2	0.865	inactive
78	ZMYND8	3	-0.221	inactive
79	JAKMIP1-DT	1	-0.662	inactive
80	JAKMIP1-DT	2	1.2	inactive
81	JAKMIP1-DT	3	-0.0629	inactive
82	SPRING1	1	0.597	inactive
83	SPRING1	2	0.716	inactive
84	SPRING1	3	0.398	inactive
85	SUCLA2	1	-0.487	inactive
86	SUCLA2	2	-1.59	inactive
87	SUCLA2	3	-0.615	inactive
